# Measured values as given in PubChem BioAssay AID540276 (National Center for Advancing Translational Sciences (NCATS), 2011).
# “And” between values parts separate entries of the source, which are not always exact repeats. Equal entries are not always repeated. Hit rate of the full screen: of about 300,000 compounds, about 5,400 (1.8%) were called active. This list was built around the results that the source calls inconclusive (neither active nor inactive); the mix of calls is not that of the screen. Calls come from the whole dose curve; tested in HEK293 cells. Potencies of inconclusive entries are doubtful fits and often do not repeat.
# Experiment: qHTS for inhibitors of binding or entry into cells for Marburg Virus
# Details: Marburg virus pseudotyped entry inhibition, cell reporter; activity change, negative = inhibition: at 37.8 µM (top of the series) unless noted
# % is set by controls: 0 for no effect and ±100 for the full control effect; potency is the fitted concentration of half-maximal effect.
Structure (SMILES),Potency,"activity change, negative = inhibition"
O=C(CN1C(=O)c2ccccc2S1(=O)=O)N1CCc2ccccc2C1,"inconclusive: 7.08 µM [inhibitor, full curve]",
NC(N)=[N+]1CCc2ccccc2C1,"inconclusive: 0.0224 µM [activator, full curve]",
COc1ccccc1/C=C/C=N/NC(=O)Cc1cccn1C,"inconclusive: 11.2 µM [activator, partial curve, poor fit]",
Cc1ccc2[nH]c(=O)c(C(c3nnnn3C(C)(C)C)N(Cc3ccco3)CC3CCCO3)cc2c1 (stereo unspecified),"inconclusive: 16.4 µM [inhibitor, partial curve, poor fit]",
COC(=O)c1cnc(Oc2ccc(NC(=O)NC(=O)c3c(F)cccc3F)cc2)cc1C(F)(F)F,,inactive: -22.5% [at 46.1 µM]
N#C/C(=C\c1ccc(N2CCOCC2)o1)C(=O)NCCc1ccccc1,"inconclusive: 15.8 µM [inhibitor, single point]",
NNc1nc(-c2ccccc2)nc2sc3c(c12)CCCC3,"inconclusive: 15.8 µM [inhibitor, single point]",
O=C(c1cc2ncc(Br)cn2n1)N1CCN(C(=O)c2ccco2)CC1,,inactive: 0%
CCC1Oc2ccccc2N(CC(=O)NCCc2ccc(OC)c(OC)c2)C1=O (stereo unspecified),,inactive: 0.224%
CCOc1ccc(NCC(=O)N/N=C/C=C/c2ccccc2)cc1,,inactive: 3.2%
COc1ccc(CNC(=O)C(=O)NCC2OCCN2S(=O)(=O)c2ccc(OC)cc2)cc1 (stereo unspecified),"inconclusive: 7.08 µM [inhibitor, partial curve, poor fit]",
Cc1nnc(SCc2ccccn2)n(N)c1=O,,inactive: 1.28% [at 46.1 µM]
O=C(CN1CCOCC1)Nc1ccc(-c2nc3ccccc3[nH]2)cc1,"inconclusive: 2.59 µM [activator, full curve, poor fit]",
COc1cc(C(=O)c2ccc3c(c2)OCO3)cc(OC)c1OC,"inconclusive: 0.794 µM [inhibitor, full curve]",
Cc1ccc(C)c(NC(=O)c2nnn(Cc3ccc(F)cc3Cl)c2N)c1,,inactive: -6.84% [at 46.1 µM]
CC(C)n1ncc2c(C(=O)NCCc3ccc(S(N)(=O)=O)cc3)cc(C3CC3)nc21,"inconclusive: 20 µM [inhibitor, single point]",
COc1cc(S(=O)(=O)Nc2cccc(C)c2)ccc1NC(=O)c1ccncc1,"inconclusive: 35.5 µM [inhibitor, single point]",
COc1cc(C(=O)OCC(=O)NCc2ccco2)cc(OC)c1OC,"inconclusive: 1.41 µM [inhibitor, partial curve]",
Cc1cc(CSc2ccccc2)ccc1NC(=O)COc1ccccc1,"inconclusive: 20 µM [inhibitor, single point]",
Cc1cccc(CSc2nnc(CCCCCN)o2)c1,"inconclusive: 14.1 µM [inhibitor, single point]",
Oc1ccc(CNc2ccccc2)c2cccnc12,"inconclusive: 8.2 µM [inhibitor, partial curve, poor fit]",
Fc1ccc(C(CCCn2nnc(-c3cccnc3)n2)c2ccc(F)cc2)cc1,"inconclusive: 18.3 µM [inhibitor, partial curve, poor fit]",
Cc1cc(C)c2nc(N3CCOCC3)c(C#N)cc2c1,"inconclusive: 22.4 µM [inhibitor, partial curve, poor fit]",
O=C(Cc1n[nH]c(=O)c2ccccc12)Nc1cccc(S(=O)(=O)N2CCCC2)c1,,inactive: -14.3%

Structure (SMILES),Potency,"activity change, negative = inhibition"
O=C(Nc1ccc(F)cc1)Nc1nnc(-c2ccccc2)o1,"inconclusive: 1.78 µM [inhibitor, partial curve, poor fit]",
CCOC(=O)N1CCN(c2nc(-c3ccc(F)cc3)cs2)CC1,"inconclusive: 35.5 µM [inhibitor, single point]",
O=C1O/C(=C/c2ccccc2)c2ccccc21,,inactive: 6.64%
Cn1nc(-c2ccccc2F)c2cc(C(=O)NCc3cccc(Cl)c3)sc21,"inconclusive: 35.5 µM [inhibitor, partial curve, poor fit]",
COc1cc(CNc2ccc(N3CCCC3)cc2)cc(Cl)c1OC,"inconclusive: 8.91 µM [inhibitor, partial curve, poor fit]",
CCC/C=N/NC(=O)c1cccc(Br)c1,,inactive: 20.4% [at 46.1 µM]
COc1ccc(OC)c(CCNC(=O)Cn2nc(C)n3c(cc4sccc43)c2=O)c1,,inactive: -1.69% [at 46.1 µM]
Cc1nnc(SCC(=O)Nc2ccc(N(C)C)cc2)n(N)c1=O,"inconclusive: 1.41 µM [inhibitor, partial curve, poor fit]",
COc1ccc(N(C(=O)c2ccco2)C(C(=O)NC2CCCC2)c2ccc(C)cc2)c(OC)c1 (stereo unspecified),"inconclusive: 39.8 µM [inhibitor, partial curve, poor fit]",
O=C(Nc1c2c(nn1-c1ccc(Cl)cc1)CS(=O)(=O)C2)c1ccccc1,"inconclusive: 7.94 µM [inhibitor, partial curve, poor fit]",
Cc1cccc(N2CN(Cc3cccnc3)CNC2=S)c1C,,inactive: 2.91%
O=C(N1CCOCC1)N1CCN(Cc2ccccc2)CC1,,inactive: 14%
O=C(NCCC1CCCCN1S(=O)(=O)c1ccc(F)cc1)C(=O)NCc1ccncc1 (stereo unspecified),"inconclusive: 35.5 µM [inhibitor, single point]",
COc1ccc(C(=O)Nc2ccc(OC)c(OC)c2)cc1,"inconclusive: 6.51 µM [activator, single point]",
Cc1nn(CC(=O)OCC(=O)Nc2c(C(C)C)cccc2C(C)C)c(C)c1[N+](=O)[O-],"inconclusive: 1.26 µM [activator, partial curve, poor fit]",
CCOc1ccc(CN(Cc2ccco2)S(=O)(=O)c2ccc(-n3cnnn3)c(OC)c2)cc1,"inconclusive: 16.4 µM [inhibitor, single point]",
Cc1cc(C(=O)N(C2CCCCC2)C2CCCCC2)no1,"inconclusive: 0.184 µM [inhibitor, full curve, poor fit]",
CC(=O)NC(=S)Nc1ccc(NC(=S)NC(=O)/C=C/c2ccco2)cc1,,inactive: -24.8%
Cc1ccc2nc(C)c3c(c2c1)N(c1ccccc1)CC3,active: 5.62 µM,
Clc1ccc2scc(CN3CCCCC3)c2c1,"inconclusive: 17.8 µM [inhibitor, single point]",
CCOc1ccc2nc(N3C(=O)/C(=C/c4ccccc4)NC3=S)sc2c1,"inconclusive: 0.631 µM [activator, partial curve, poor fit]",
COc1ccc(-c2cc(C(=O)N/N=C/c3cccnc3)c3ccccc3n2)cc1,"inconclusive: 10 µM [inhibitor, partial curve, poor fit]",
N#C/C(=C(/O)c1ccc([N+](=O)[O-])cc1)c1nc2ccccc2[nH]1,,inactive: 7.58% [at 46.1 µM]
COc1ccc(-n2ncc3c2ncn2nc(Cc4ccccc4)nc32)cc1,"inconclusive: 3.55 µM [activator, partial curve, poor fit]",

# Reprinted at random: 3 records from the list
Structure (SMILES),Potency,"activity change, negative = inhibition"
Cc1nn(CC(=O)OCC(=O)Nc2c(C(C)C)cccc2C(C)C)c(C)c1[N+](=O)[O-],"inconclusive: 1.26 µM [activator, partial curve, poor fit]",
COc1ccc(-n2ncc3c2ncn2nc(Cc4ccccc4)nc32)cc1,"inconclusive: 3.55 µM [activator, partial curve, poor fit]",
CCC/C=N/NC(=O)c1cccc(Br)c1,,inactive: 20.4% [at 46.1 µM]

# Additional records follow.

Structure (SMILES),Potency,"activity change, negative = inhibition"
O=C(Nc1ccccc1F)c1ccc2c(c1)CCN2S(=O)(=O)c1ccccc1,"inconclusive: 35.5 µM [inhibitor, single point]",
CC1CCc2nc(NC(=O)CN3CCN(Cc4ccc5c(c4)OCO5)CC3)sc2C1 (stereo unspecified),"inconclusive: 35.5 µM [inhibitor, single point]",
CCSc1nccc(-c2nn(-c3ccc(C)cc3)ccc2=O)n1,"inconclusive: 3.16 µM [inhibitor, full curve, poor fit]",
CC(C)Oc1cccnc1N(C)C1CCN(Cc2ccccc2)CC1,active: 1.78 µM,
O=C(O)CCN1C(=O)S/C(=C\c2cccnc2)C1=O,"inconclusive: 2.82 µM [activator, single point]",
Cc1ccccc1Nc1nc(N)nc(COC(=O)CCS(=O)(=O)c2ccccc2)n1,"inconclusive: 25.9 µM [activator, single point]",
CCCOc1ccc(N2C(=O)CC(N(CCOC34CC5CC(CC(C5)C3)C4)C(C)=O)C2=O)cc1 (stereo unspecified),,inactive: 1.74%
CC(/C=N/Nc1nc(C)cc(C)n1)=C\c1ccc(C(C)C)cc1,"inconclusive: 0.794 µM [inhibitor, full curve, poor fit]",
COc1ccc(C(=O)CN2CCN(c3ccc(F)cc3)CC2)cc1OC,,inactive: 0.0672%
CCOC(=O)C1CCCN(C(=O)c2cc(S(=O)(=O)N3CCCCC3)ccc2C)C1 (stereo unspecified),,inactive: -7.84% [at 46.1 µM]
O=c1[nH][nH]c(=O)c2c1[nH]c(=S)n2Cc1ccccc1,,inactive: 11.9% [at 46.1 µM]
CC1(C)CC(=O)C2=C(C1)Nc1ccccc1NC2c1cc(Cl)ccc1O (stereo unspecified),"inconclusive: 3.55 µM [inhibitor, single point]",
COc1cc2c(cc1NC(=O)COc1ccc(Cl)cc1)oc1ccccc12,,inactive: 22.2% [at 46.1 µM]
CCCn1c(SCC(=O)c2ccc3c(c2)NC(=O)CO3)nc2ccccc21,,inactive: -1.7%
COc1ccc(NC(=O)N2c3ccc(OC)cc3C(C)=CC2(C)C)cc1,,inactive: -1.96%
Cc1cc(C)n(-c2ccc(C(=O)Oc3ccc4c(c3)OCO4)cc2)n1,,inactive: -2.12%
O=C(COC(=O)c1cncc(Br)c1)Nc1nc(-c2ccc(F)cc2)cs1,,inactive: 16.3% [at 46.1 µM]
Cc1ccc2nc(NC(=O)c3ccc4c(c3)OCO4)sc2c1,,inactive: -8.46%
Cc1ccc(C(=O)Nc2cnc3sc(C)nn3c2=O)cc1,,inactive: 1.09%
COc1ccc([C@]23Cc4cc(C#N)ccc4[C@H](O2)c2c(c4ccc(OC)cc4oc2=O)O3)cc1,"inconclusive: 266 nM [inhibitor, full curve, poor fit] and inconclusive: 531 nM [inhibitor, partial curve, poor fit]",
CCCCN(CC)Cc1ccc(CNC(=O)Nc2ccc(F)cc2)o1,,inactive: 1.72%
Cc1csc(NC(=O)CSc2nnc(CCNC(=O)c3cccs3)n2C)n1,,inactive: -3.47%
Cc1ccc(S(=O)(=O)c2c(N)n(CC3CCOC3)c3nc4ccccc4nc23)cc1 (stereo unspecified),"inconclusive: 9.2 µM [inhibitor, partial curve, poor fit]",
